The list does not hold the whole screen: it gathers tests that were run many times, whatever their T/C, doses with no T/C, and many T/C values between a quarter and a half above the control. Further doses and runs are listed elsewhere. T/C is the treated group as % of the vehicle group. Some doses have a count of surviving animals in place of a T/C: the source files T/C as zero there, which appears to mark a toxic dose or a test without result, not a measured value. Some doses without a T/C left all or most animals alive at the check, yet need not have been tolerated: the source hardly ever lists a survival T/C far under the control, and the zero likely stands for such cases as well. Counts of survivors are from the toxicity check (mostly the fifth day) where no day follows; animals may have died later. Schedule codes are those of the source, read here as Q, the interval in days (D) or hours (H), X, the number of doses. Where survival is the endpoint, the PubChem record calls one and a half times the control and up active, and a quarter to a half above the control has no call in these data; cut-offs in other NCI protocols can differ. Some T/C values are followed by the survivors on the day toxicity was checked, most often the fifth; without a count, all were alive then.
Test system: BDF1 mice, P388 leukemia ip, median survival T/C
Assay: NCI In Vivo Anticancer Drug Screen. Data for tumor model P388 Leukemia (intraperitoneal) in B6D2F1 (BDF1) mice
Conditions: T/C endpoint: median survival time, higher T/C = longer survival
How it was run: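 Steps: implant the tumour, treat one group with compound and another with vehicle, record survival, then divide treated by control.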

[1] = dose: 100.0 mg/kg/injection, schedule: Q01DX009 (ip), vehicle: saline
[2] = dose: 200.0 mg/kg/injection, schedule: Q04DX003 (ip), vehicle: saline
[3] = dose: 100.0 mg/kg/injection, schedule: Q04DX002 (ip), vehicle: saline with Tween-80
[4] = dose: 25.0 mg/kg/injection, schedule: Q01DX009 (ip), vehicle: Klucel (hydroxypropylcellulose) (HPC)
[5] = dose: 100.0 mg/kg/injection, schedule: Q04DX003 (ip), vehicle: Klucel (hydroxypropylcellulose) (HPC)
[6] = dose: 200.0 mg/kg/injection, schedule: Q01DX009 (ip), vehicle: saline
[7] = dose: 200.0 mg/kg/injection, schedule: Q01DX009 (ip), vehicle: saline with Tween-80
[8] = dose: 100.0 mg/kg/injection, schedule: Q01DX009 (ip), vehicle: saline with Tween-80
[9] = dose: 400.0 mg/kg/injection, schedule: Q04DX003 (ip), vehicle: saline with Tween-80
[10] = dose: 50.0 mg/kg/injection, schedule: Q04DX003 (ip), vehicle: saline

CC(C)C([NH-])=O.CC(C)C([NH-])=O.[Cl][Pt+2][Cl]
T/C (dose: 12.5 mg/kg/injection, schedule: Q01DX009 (ip), vehicle: saline): 136 % of control
T/C (dose: 50.0 mg/kg/injection, schedule: Q01DX009 (ip), vehicle: saline, evaluated on day 20): 125 % of control
T/C (dose: 50.0 mg/kg/injection, schedule: Q01DX009 (ip), vehicle: saline, evaluated on day 30): 129 % of control
survivor count [1]: 5 of 6
survivor count [2]: 0 of 6

COc1ccc(/C=C2\C(=O)C(c3ccccc3)N(c3ccccc3)C2=O)cc1 (configuration not stated)
survivor count [3]: 6 of 6
survivor count (dose: 200.0 mg/kg/injection, schedule: Q04DX002 (ip), vehicle: saline with Tween-80): 6 of 6

O=C1NC(c2cccc3ccccc23)Nc2ccc(Cl)cc21 (configuration not stated)
T/C [4]: 135 % of control
survivor count (dose: 200.0 mg/kg/injection, schedule: Q01DX009 (ip), vehicle: Klucel (hydroxypropylcellulose) (HPC)): 5 of 6
survivor count (dose: 400.0 mg/kg/injection, schedule: Q01DX009 (ip), vehicle: Klucel (hydroxypropylcellulose) (HPC)): 0 of 6

CC[C@@]1(O)C[C@H](OC2CC(N(C)C)C(OC3CC(O)C(OC4CC(O)C(O)C(C)O4)C(C)O3)C(C)O2)c2c(cc3c(c2O)C(=O)c2c(O)ccc(O)c2C3=O)[C@H]1C(=O)OC (some centres not stated)
T/C (dose: 3.0 mg/kg/injection, schedule: Q04DX003 (ip), vehicle: water): 138 % of control

CCCCN(CCCC)CC(O)c1cc(Cl)cc2cccnc12 (configuration not stated)
survivor count (dose: 12.5 mg/kg/injection, schedule: Q01DX009 (ip), vehicle: Klucel (hydroxypropylcellulose) (HPC)): 6 of 6
survivor count [5]: 2 of 6

Cc1c2ccccc2c(CSC(=N)N)c2ccccc12
T/C (dose: 2.78 mg/kg/injection, schedule: Q04DX003 (ip), vehicle: saline with Tween-80): 127 % of control
T/C (dose: 4.17 mg/kg/injection, schedule: Q04DX003 (ip), vehicle: saline with Tween-80): 131 % of control
T/C (dose: 6.25 mg/kg/injection, schedule: Q04DX003 (ip), vehicle: saline with Tween-80): 127 % of control
T/C (dose: 6.25 mg/kg/injection, schedule: Q04DX003 (ip), vehicle: saline): 140 % of control

NNc1cc(N)[nH]n1
survivor count [6]: 1 of 6

OC1c2ccccc2-c2ccccc2C1O (configuration not stated)
T/C [3]: 140 % of control

Nc1ncc([N+](=O)[O-])c(Cl)n1
survivor count [7]: 6 of 6

CCOc1ccc(/C=N/NS(=O)(=O)c2ccccc2)cc1OC
T/C [8]: 145 % of control

O=C(NC(=O)c1c(F)cccc1F)Nc1nc2ccccc2s1
survivor count (dose: 50.0 mg/kg/injection, schedule: Q01DX009 (ip), vehicle: saline with Tween-80): 6 of 6

Cc1ccn(C)c(=O)c1
survivor count (dose: 400.0 mg/kg/injection, schedule: Q01DX009 (ip), vehicle: saline): 6 of 6

COC1OC(n2cnc3ncn(Cc4ccccc4)c3c2=N)C2OC(C)(C)OC12 (configuration not stated)
T/C (dose: 50.0 mg/kg/injection, schedule: Q01DX001 (ip), vehicle: saline): 130 % of control

C=C1C(=O)OC2/C=C(\C)CC(O)/C=C(\C)CC(O)C12 (configuration not stated)
T/C (dose: 100.0 mg/kg/injection, schedule: Q01DX001 (ip), vehicle: saline with Tween-80): 125 % of control
T/C (dose: 200.0 mg/kg/injection, schedule: Q01DX001 (ip), vehicle: saline with Tween-80): 131 % of control [5 of 6 alive]
survivor count (dose: 400.0 mg/kg/injection, schedule: Q01DX001 (ip), vehicle: saline with Tween-80): 1 of 6

CCNC(C)(C)C(SSSC(c1cccs1)C(C)(C)NCC)c1cccs1 (configuration not stated)
survivor count (dose: 400.0 mg/kg/injection, schedule: Q01DX001 (ip), vehicle: saline): 0 of 6

N#CC(C#N)=C(C#N)C#N
survivor count (dose: 6.25 mg/kg/injection, schedule: Q04DX003 (ip), vehicle: Klucel (hydroxypropylcellulose) (HPC)): 1 of 6

N#Cc1nc2c(nc1C#N)-c1ccccc1C2=O
survivor count [4]: 5 of 6

CC(C)(C)SC(=O)C[Si](C)(C)C
survivor count [9]: 5 of 6

COc1ccc(N2CSC(=S)N(c3ccc(OC)cc3)C2)cc1
survivor count [2]: 6 of 6

CCCCSC1=CC(=O)c2ccccc2C1=O
survivor count [4]: 3 of 6
survivor count (dose: 50.0 mg/kg/injection, schedule: Q01DX009 (ip), vehicle: Klucel (hydroxypropylcellulose) (HPC)): 0 of 6

N#Cc1ncc(C(Cl)(Cl)Cl)nc1Cl
T/C [7]: 125 % of control
survivor count (dose: 200.0 mg/kg/injection, schedule: Q04DX003 (ip), vehicle: saline with Tween-80): 5 of 6
survivor count [9]: 0 of 6

COC(=O)C12OCC34C(CC(C(C)=O)C(C)(CC(=O)O)C3C(O)C1O)OC(=O)C(OC(=O)/C=C(\C)C(C)C)C24 (configuration not stated)
survivor count (dose: 1.0 mg/kg/injection, schedule: Q01DX009 (ip), vehicle: saline): 6 of 6

CCOc1cccc(/C=N/n2c(-c3ccccc3Cl)nc3ccccc3c2=O)c1O
survivor count [7]: 6 of 6

O=[N+]([O-])c1ccc(/C=N\Nc2ccc([N+](=O)[O-])cn2)cc1
survivor count (dose: 400.0 mg/kg/injection, schedule: Q01DX009 (ip), vehicle: saline with Tween-80): 4 of 6

c1ccc2c[n+]3cc4ccccc4cc3cc2c1
survivor count (dose: 35.0 mg/kg/injection, schedule: Q01DX009 (ip), vehicle: saline): 2 of 6
survivor count [10]: 5 of 6

C(=C\C1CC2CCCN2O1)/c1ccccc1 (configuration not stated)
T/C [8]: 136 % of control

CC([OH2+])CNCCN.CC([OH2+])CNCCN.[Cu+2].[O-][Cl+3]([O-])([O-])[O-] (configuration not stated)
survivor count (dose: 50.0 mg/kg/injection, schedule: Q01DX009 (ip), vehicle: saline): 1 of 6
survivor count [1]: 0 of 6
survivor count [6]: 0 of 6

CCCCCCCCS.[Ni]
survivor count (dose: 200.0 mg/kg/injection, schedule: Q04DX003 (ip), vehicle: Klucel (hydroxypropylcellulose) (HPC)): 3 of 6
survivor count (dose: 400.0 mg/kg/injection, schedule: Q01DX001 (ip), vehicle: Klucel (hydroxypropylcellulose) (HPC)): 1 of 6
survivor count (dose: 400.0 mg/kg/injection, schedule: Q04DX003 (ip), vehicle: Klucel (hydroxypropylcellulose) (HPC)): 0 of 6

CCOC1=C(N2CC2)C(=O)C(OCC)=C(N2CC2)C1=O
T/C (dose: 0.15 mg/kg/injection, schedule: Q01DX009 (ip), vehicle: saline with Tween-80): 132 % of control
T/C (dose: 0.31 mg/kg/injection, schedule: Q04DX003 (ip), vehicle: saline): 127 % of control
T/C (dose: 1.25 mg/kg/injection, schedule: Q04DX003 (ip), vehicle: saline): 127 % of control
survivor count (dose: 5.0 mg/kg/injection, schedule: Q04DX003 (ip), vehicle: saline): 0 of 6
survivor count (dose: 10.0 mg/kg/injection, schedule: Q04DX003 (ip), vehicle: saline): 0 of 6
survivor count (dose: 20.0 mg/kg/injection, schedule: Q04DX003 (ip), vehicle: saline): 0 of 6

OCCNCCN1CCN(CCCN2c3ccccc3Sc3ccc(C(F)(F)F)cc32)CC1
T/C (dose: 12.5 mg/kg/injection, schedule: Q04DX003 (ip), vehicle: saline): 135 % of control
survivor count [10]: 6 of 6

Cc1cc(N(CCOS(C)(=O)=O)CCOS(C)(=O)=O)ccc1C=O
survivor count (dose: 50.0 mg/kg/injection, schedule: Q04DX003 (ip), vehicle: saline with Tween-80): 5 of 6
survivor count (dose: 100.0 mg/kg/injection, schedule: Q04DX003 (ip), vehicle: saline with Tween-80): 6 of 6

CC(O)C(O)C(O)C(O)/C=N/O (configuration not stated)
survivor count [5]: 6 of 6

COCCOC1=C(N2CC2)C(=O)C(OCCOC)=C(N2CC2)C1=O
T/C (dose: 0.6 mg/kg/injection, schedule: Q01DX009 (ip), vehicle: saline): 127 % of control
T/C (dose: 2.0 mg/kg/injection, schedule: Q04DX003 (ip), vehicle: saline): 143 % of control
T/C (dose: 2.2 mg/kg/injection, schedule: Q04DX003 (ip), vehicle: saline): 145 % of control
survivor count (dose: 25.0 mg/kg/injection, schedule: Q04DX003 (ip), vehicle: saline): 4 of 6
survivor count (dose: 100.0 mg/kg/injection, schedule: Q04DX003 (ip), vehicle: saline): 0 of 6
survivor count [2]: 1 of 6
survivor count (dose: 400.0 mg/kg/injection, schedule: Q04DX003 (ip), vehicle: saline): 0 of 6
